Record: PubChem BioAssay AID1159578 (Peter MacCallum Cancer Centre, 2015)
Here is an unselected part of about 18,000 deposited reagents. Over the whole deposit, about 1,030 (5.7%) got an active call. 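Inactive calls also include pools with fewer than 3300 nuclei, whose migration was not assessed.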 The raw values are shown without normalisation. Unmarked entries are inactive.

Assay: 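siRNA pools altering how lymphatic endothelial cells close a scratch wound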 (primary screen)
Cell system: human lymphatic endothelial cells
Knock-down reagent: siRNA pool against human genes, 40 nM
Duration: 48 h after transfection
Read-out: 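High-content imaging of dye-stained cells in a scratch assay measures filled wound area and nuclei per well; duplicate means given as ratio to mock and robust z-score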
Reading the numbers: migration robust z-score: higher = faster migration into the scratch; migration relative to mock: higher = more scratch area covered than mock; nuclei per well: higher = more cells in the well
Rule for the call: 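Migration changed when robust z exceeds 2 or falls below -2 and mean nuclei number is at least 3300; otherwise not called changed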
Meaning of the calls: active = migration changed; inactive = no migration change, or too few cells

gene | migration robust z-score | migration class with cell-count check | migration relative to mock | nuclei per well, duplicate mean
CLHC1 | 0.93 | migration z between -2 and 2; enough cells | 1.12 | 5680
LRRTM4 | -0.87 | migration z between -2 and 2; enough cells | 0.65 | 4933
ZNF627 | 2.24 (active) | migration z above 2; enough cells | 1.46 | 5800
CR1 | 0.6 | migration z between -2 and 2; enough cells | 0.92 | 5548
GCFC2 | 0.56 | migration z between -2 and 2; enough cells | 1.03 | 6596
PEX3 | -1.3 | migration z between -2 and 2; enough cells | 0.55 | 6136
CCDC15 | 0.02 | migration z between -2 and 2; enough cells | 0.9 | 5964
ADAMTSL3 | 0.56 | migration z between -2 and 2; enough cells | 1.03 | 6404
GAL3ST3 | -0.18 | migration z between -2 and 2; enough cells | 0.77 | 4970
ST3GAL2 | -0.39 | migration z between -2 and 2; enough cells | 0.73 | 6126
HTR5A | 1.04 | migration z between -2 and 2; enough cells | 1 | 6956
RHBDD1 | -0.39 | migration z between -2 and 2; enough cells | 0.78 | 5992
COLGALT1 | -0.4 | migration z between -2 and 2; enough cells | 0.78 | 5861
DOK7 | 2.2 (active) | migration z above 2; enough cells | 1.46 | 6570
RNF217 | 0.54 | migration z between -2 and 2; enough cells | 0.91 | 5754
TNFSF9 | 0.54 | migration z between -2 and 2; enough cells | 1.04 | 5796
TLE2 | 0.88 | migration z between -2 and 2; enough cells | 0.98 | 6450
TBCCD1 | 0.67 | migration z between -2 and 2; enough cells | 1.06 | 6200
CCDC71 | -0.5 | migration z between -2 and 2; enough cells | 0.75 | 6968
BRF2 | 0.86 | migration z between -2 and 2; enough cells | 1.11 | 6521
AGXT | 0.29 | migration z between -2 and 2; enough cells | 0.86 | 4634
RNF7 | 0.9 | migration z between -2 and 2; enough cells | 0.98 | 6448
TMLHE | 0.83 | migration z between -2 and 2; enough cells | 0.96 | 5332
MPDU1 | -0.26 | migration z between -2 and 2; enough cells | 0.82 | 5006
ADCY5 | -0.1 | migration z between -2 and 2; enough cells | 0.78 | 5078
NEXMIF | -3.49 (active) | migration z below -2; enough cells | -0.02 | 3583
CCT8L1P | -0.7 | migration z between -2 and 2; enough cells | 0.7 | 5864
SET | 0.16 | migration z between -2 and 2; enough cells | 0.84 | 4974
CNP | 0.16 | migration z between -2 and 2; enough cells | 0.84 | 4790
DPH2 | -0.26 | migration z between -2 and 2; enough cells | 0.82 | 7160
ELAVL3 | -1.66 | migration z between -2 and 2; enough cells | 0.46 | 4548
NTHL1 | -0.11 | migration z between -2 and 2; enough cells | 0.78 | 6192
KRT71 | 0.24 | migration z between -2 and 2; enough cells | 0.94 | 3575
TRMT10B | -1.34 | migration z between -2 and 2; enough cells | 0.53 | 5020
TRIM74 | 0.42 | migration z between -2 and 2; enough cells | 0.88 | 6401
IGFBP1 | -0.09 | migration z between -2 and 2; enough cells | 0.86 | 5828
TRAPPC4 | -0.31 | migration z between -2 and 2; enough cells | 0.8 | 5607
SNAI1 | -2.34 (active) | migration z below -2; enough cells | 0.28 | 3792
ORC4 | 0.26 | migration z between -2 and 2; enough cells | 0.95 | 7120
SLC7A14 | -0.8 | migration z between -2 and 2; enough cells | 0.68 | 6000
AMIGO2 | -0.04 | migration z between -2 and 2; enough cells | 0.88 | 5692
NUP42 | -1.5 | migration z between -2 and 2; enough cells | 0.5 | 5267
RTL8A | -0.82 | migration z between -2 and 2; enough cells | 0.67 | 5236
TOMM7 | 0.4 | migration z between -2 and 2; enough cells | 0.99 | 7495
PALM | 0.55 | migration z between -2 and 2; enough cells | 1.02 | 6580
NBPF15 | 1.6 | migration z between -2 and 2; enough cells | 1.3 | 6162
FLII | -0.73 | migration z between -2 and 2; enough cells | 0.7 | 6164
SALL1 | 0 | migration z between -2 and 2; enough cells | 0.8 | 5668
MMP13 | 0.31 | migration z between -2 and 2; enough cells | 0.86 | 4738
CARF | -0.32 | migration z between -2 and 2; enough cells | 0.74 | 5290
VWA7 | 0.48 | migration z between -2 and 2; enough cells | 1.01 | 6214
ARL13B | -0.2 | migration z between -2 and 2; enough cells | 0.83 | 6056
SCML1 | 0.13 | migration z between -2 and 2; enough cells | 0.83 | 5890
LINC00518 | -2.04 (active) | migration z below -2; enough cells | 0.36 | 5980
SARDH | -0.8 | migration z between -2 and 2; enough cells | 0.65 | 5947
FBXW12 | -0.93 | migration z between -2 and 2; enough cells | 0.63 | 5724
ZDHHC21 | -1.58 | migration z between -2 and 2; enough cells | 0.48 | 6784
ANKZF1 | -1.75 | under 3300 nuclei; migration not judged | 0.44 | 2318
FBH1 | 1.06 | migration z between -2 and 2; enough cells | 1.01 | 5417
CTSL | 0.52 | migration z between -2 and 2; enough cells | 0.9 | 5372
TGIF2LX | 0.72 | migration z between -2 and 2; enough cells | 0.94 | 5462
PDSS2 | -0.17 | migration z between -2 and 2; enough cells | 0.84 | 5686
RAE1 | 1.04 | migration z between -2 and 2; enough cells | 1 | 5493
SLC16A9 | 2.82 (active) | migration z above 2; enough cells | 1.62 | 7654
UCK1 | -0.54 | migration z between -2 and 2; enough cells | 0.7 | 5590
HNRNPAB | 1.36 | migration z between -2 and 2; enough cells | 1.23 | 5939
RAB2B | 0.83 | migration z between -2 and 2; enough cells | 0.97 | 5925
MVB12A | 1.36 | migration z between -2 and 2; enough cells | 1.24 | 7240
CCDC22 | -0.77 | migration z between -2 and 2; enough cells | 0.68 | 4406
COX7A2 | -0.42 | migration z between -2 and 2; enough cells | 0.73 | 4950
NRAS | 0.05 | migration z between -2 and 2; enough cells | 0.82 | 5626
CBX4 | -0.78 | migration z between -2 and 2; enough cells | 0.66 | 5574
EIF2S1 | 0.46 | migration z between -2 and 2; enough cells | 0.9 | 5116

In a second layout: entries from further up
| gene | migration robust z-score | migration class with cell-count check | migration relative to mock | nuclei per well, duplicate mean |
| --- | --- | --- | --- | --- |
| NTHL1 | -0.11 | migration z between -2 and 2; enough cells | 0.78 | 6192 |
| KRT71 | 0.24 | migration z between -2 and 2; enough cells | 0.94 | 3575 |
| TRMT10B | -1.34 | migration z between -2 and 2; enough cells | 0.53 | 5020 |
| TRIM74 | 0.42 | migration z between -2 and 2; enough cells | 0.88 | 6401 |
| IGFBP1 | -0.09 | migration z between -2 and 2; enough cells | 0.86 | 5828 |
| TRAPPC4 | -0.31 | migration z between -2 and 2; enough cells | 0.8 | 5607 |
| SNAI1 | -2.34 (active) | migration z below -2; enough cells | 0.28 | 3792 |
| ORC4 | 0.26 | migration z between -2 and 2; enough cells | 0.95 | 7120 |
| SLC7A14 | -0.8 | migration z between -2 and 2; enough cells | 0.68 | 6000 |
| AMIGO2 | -0.04 | migration z between -2 and 2; enough cells | 0.88 | 5692 |
